According to the supplement of paper PMC6411743:
± gives the standard deviation of the averaged measurements. Only a part is listed here, and it is no random draw.

Chains of the proteins cited; added tags and fusions are not shown. Lines headed by an entry give the natural chain unless they say otherwise; changes in a name come on top.
UniProt Q5EBL8: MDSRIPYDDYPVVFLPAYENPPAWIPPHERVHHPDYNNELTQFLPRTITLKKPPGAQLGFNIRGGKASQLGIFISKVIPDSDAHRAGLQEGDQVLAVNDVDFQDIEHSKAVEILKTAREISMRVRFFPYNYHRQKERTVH
UniProt Q562F6: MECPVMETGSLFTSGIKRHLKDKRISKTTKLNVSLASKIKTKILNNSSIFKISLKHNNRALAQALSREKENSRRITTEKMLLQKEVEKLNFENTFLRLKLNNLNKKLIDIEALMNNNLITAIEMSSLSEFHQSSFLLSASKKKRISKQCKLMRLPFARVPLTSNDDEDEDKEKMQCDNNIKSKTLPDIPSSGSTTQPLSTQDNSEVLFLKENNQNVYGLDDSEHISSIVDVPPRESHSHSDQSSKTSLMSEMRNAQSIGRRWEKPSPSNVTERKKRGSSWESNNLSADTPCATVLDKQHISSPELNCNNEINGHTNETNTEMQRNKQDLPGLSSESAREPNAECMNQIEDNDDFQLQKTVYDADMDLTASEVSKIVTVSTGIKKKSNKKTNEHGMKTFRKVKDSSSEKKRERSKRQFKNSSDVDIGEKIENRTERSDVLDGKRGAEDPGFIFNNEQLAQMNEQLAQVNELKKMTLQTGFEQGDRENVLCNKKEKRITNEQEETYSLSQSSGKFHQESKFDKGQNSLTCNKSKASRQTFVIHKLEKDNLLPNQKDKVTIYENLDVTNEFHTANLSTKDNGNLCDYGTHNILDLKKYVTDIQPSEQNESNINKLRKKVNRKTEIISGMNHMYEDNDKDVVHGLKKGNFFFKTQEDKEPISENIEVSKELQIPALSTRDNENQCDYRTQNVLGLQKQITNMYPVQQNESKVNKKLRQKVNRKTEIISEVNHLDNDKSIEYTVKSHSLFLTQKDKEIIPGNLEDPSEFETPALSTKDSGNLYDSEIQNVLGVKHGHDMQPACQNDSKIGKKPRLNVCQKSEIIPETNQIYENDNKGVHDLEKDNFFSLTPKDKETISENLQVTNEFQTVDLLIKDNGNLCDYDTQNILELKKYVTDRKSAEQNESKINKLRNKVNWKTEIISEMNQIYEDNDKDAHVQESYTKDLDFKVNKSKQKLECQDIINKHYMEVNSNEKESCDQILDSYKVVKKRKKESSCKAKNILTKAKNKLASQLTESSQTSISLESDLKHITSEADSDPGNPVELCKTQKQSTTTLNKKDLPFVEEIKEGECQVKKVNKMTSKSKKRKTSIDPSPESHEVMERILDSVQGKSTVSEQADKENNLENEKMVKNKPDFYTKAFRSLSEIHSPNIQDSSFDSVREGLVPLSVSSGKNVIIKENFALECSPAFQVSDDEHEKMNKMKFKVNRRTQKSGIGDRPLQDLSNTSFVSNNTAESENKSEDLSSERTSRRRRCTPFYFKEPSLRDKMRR
UniProt Q68CP9, whole entry: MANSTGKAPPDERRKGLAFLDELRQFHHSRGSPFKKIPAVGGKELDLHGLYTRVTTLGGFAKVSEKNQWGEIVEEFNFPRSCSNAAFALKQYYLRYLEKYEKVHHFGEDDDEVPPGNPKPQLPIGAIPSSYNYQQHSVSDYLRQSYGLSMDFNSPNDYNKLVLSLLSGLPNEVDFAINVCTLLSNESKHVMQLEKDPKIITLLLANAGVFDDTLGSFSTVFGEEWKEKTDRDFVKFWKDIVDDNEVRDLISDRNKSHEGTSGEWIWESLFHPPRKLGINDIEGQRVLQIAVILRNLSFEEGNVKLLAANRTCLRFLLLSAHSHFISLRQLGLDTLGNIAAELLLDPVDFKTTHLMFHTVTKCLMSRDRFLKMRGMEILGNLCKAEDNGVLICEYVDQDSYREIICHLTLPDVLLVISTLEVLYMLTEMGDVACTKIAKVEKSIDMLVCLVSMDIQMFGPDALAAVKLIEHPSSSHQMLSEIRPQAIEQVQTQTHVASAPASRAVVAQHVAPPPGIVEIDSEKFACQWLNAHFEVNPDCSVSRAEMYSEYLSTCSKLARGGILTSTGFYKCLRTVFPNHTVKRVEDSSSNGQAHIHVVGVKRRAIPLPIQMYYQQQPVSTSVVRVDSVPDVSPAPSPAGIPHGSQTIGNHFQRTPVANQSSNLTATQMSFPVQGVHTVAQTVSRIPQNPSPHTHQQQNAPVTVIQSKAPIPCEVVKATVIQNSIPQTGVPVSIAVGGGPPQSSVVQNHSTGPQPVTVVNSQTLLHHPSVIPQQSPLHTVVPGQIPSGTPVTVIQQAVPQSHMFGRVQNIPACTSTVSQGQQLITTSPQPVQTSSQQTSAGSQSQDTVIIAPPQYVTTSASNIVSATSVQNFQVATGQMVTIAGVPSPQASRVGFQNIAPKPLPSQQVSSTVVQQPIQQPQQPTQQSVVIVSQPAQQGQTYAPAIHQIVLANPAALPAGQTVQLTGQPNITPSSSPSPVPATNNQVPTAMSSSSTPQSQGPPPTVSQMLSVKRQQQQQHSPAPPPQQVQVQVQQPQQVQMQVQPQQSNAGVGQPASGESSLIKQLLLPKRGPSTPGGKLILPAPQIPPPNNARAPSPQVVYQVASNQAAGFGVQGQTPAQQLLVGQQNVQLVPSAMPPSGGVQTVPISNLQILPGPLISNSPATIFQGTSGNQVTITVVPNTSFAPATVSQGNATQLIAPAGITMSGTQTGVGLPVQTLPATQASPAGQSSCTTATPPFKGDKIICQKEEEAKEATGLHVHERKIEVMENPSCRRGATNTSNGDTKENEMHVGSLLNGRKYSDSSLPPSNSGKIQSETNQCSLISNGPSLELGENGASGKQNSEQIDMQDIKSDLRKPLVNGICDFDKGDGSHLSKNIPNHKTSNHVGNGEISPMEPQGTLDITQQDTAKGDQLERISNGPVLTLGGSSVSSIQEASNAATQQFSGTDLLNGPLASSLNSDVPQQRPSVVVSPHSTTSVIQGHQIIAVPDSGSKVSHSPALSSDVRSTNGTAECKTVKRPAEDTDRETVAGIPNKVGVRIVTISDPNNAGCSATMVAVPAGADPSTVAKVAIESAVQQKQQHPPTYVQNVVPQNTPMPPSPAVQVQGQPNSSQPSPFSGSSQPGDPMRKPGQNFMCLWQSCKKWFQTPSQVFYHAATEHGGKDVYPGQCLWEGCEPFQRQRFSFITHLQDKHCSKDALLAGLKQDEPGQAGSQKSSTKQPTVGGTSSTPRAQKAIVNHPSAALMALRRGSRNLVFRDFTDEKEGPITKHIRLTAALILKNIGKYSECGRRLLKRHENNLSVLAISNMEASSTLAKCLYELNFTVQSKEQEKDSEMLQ
UniProt Q5VSL9: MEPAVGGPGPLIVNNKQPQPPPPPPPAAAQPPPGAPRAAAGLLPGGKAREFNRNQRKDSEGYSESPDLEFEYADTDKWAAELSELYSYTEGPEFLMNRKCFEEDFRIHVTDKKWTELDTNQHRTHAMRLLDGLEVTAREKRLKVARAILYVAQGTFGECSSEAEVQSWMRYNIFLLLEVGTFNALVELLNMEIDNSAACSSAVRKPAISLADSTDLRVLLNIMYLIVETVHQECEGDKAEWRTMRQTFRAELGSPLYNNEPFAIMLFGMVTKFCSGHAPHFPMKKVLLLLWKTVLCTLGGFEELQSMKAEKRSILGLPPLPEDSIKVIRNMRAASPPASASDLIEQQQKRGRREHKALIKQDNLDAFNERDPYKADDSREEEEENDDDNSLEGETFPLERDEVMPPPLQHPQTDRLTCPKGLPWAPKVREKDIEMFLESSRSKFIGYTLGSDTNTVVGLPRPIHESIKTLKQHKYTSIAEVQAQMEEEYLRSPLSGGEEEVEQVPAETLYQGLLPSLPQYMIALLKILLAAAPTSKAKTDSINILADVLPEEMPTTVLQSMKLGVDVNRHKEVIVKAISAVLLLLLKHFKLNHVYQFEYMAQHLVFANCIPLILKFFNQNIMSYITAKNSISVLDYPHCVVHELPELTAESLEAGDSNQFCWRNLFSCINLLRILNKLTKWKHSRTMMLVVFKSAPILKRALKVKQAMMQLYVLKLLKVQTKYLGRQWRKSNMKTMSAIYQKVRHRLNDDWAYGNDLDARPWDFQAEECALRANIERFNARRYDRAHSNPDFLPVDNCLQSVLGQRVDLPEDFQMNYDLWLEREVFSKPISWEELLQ
UniProt Q6P499: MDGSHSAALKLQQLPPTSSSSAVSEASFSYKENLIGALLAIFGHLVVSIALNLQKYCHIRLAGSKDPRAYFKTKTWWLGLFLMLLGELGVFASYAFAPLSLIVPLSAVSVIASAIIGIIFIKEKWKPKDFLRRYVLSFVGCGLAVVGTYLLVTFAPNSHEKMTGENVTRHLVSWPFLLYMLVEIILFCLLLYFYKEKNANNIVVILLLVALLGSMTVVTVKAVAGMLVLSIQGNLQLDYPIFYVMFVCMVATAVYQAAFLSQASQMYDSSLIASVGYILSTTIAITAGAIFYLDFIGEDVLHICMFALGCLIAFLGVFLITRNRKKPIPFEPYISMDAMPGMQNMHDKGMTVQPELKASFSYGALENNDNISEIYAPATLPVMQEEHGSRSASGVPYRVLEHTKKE
UniProt Q6P087: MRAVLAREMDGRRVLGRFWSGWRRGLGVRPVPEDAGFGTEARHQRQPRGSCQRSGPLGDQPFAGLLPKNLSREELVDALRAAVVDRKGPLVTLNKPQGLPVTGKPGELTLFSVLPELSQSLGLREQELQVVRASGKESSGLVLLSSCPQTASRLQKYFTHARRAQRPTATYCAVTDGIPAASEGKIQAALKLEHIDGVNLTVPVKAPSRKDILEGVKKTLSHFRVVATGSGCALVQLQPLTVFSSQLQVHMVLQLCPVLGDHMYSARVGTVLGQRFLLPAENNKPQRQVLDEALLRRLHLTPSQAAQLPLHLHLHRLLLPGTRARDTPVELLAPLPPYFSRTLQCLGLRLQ
UniProt Q66K74: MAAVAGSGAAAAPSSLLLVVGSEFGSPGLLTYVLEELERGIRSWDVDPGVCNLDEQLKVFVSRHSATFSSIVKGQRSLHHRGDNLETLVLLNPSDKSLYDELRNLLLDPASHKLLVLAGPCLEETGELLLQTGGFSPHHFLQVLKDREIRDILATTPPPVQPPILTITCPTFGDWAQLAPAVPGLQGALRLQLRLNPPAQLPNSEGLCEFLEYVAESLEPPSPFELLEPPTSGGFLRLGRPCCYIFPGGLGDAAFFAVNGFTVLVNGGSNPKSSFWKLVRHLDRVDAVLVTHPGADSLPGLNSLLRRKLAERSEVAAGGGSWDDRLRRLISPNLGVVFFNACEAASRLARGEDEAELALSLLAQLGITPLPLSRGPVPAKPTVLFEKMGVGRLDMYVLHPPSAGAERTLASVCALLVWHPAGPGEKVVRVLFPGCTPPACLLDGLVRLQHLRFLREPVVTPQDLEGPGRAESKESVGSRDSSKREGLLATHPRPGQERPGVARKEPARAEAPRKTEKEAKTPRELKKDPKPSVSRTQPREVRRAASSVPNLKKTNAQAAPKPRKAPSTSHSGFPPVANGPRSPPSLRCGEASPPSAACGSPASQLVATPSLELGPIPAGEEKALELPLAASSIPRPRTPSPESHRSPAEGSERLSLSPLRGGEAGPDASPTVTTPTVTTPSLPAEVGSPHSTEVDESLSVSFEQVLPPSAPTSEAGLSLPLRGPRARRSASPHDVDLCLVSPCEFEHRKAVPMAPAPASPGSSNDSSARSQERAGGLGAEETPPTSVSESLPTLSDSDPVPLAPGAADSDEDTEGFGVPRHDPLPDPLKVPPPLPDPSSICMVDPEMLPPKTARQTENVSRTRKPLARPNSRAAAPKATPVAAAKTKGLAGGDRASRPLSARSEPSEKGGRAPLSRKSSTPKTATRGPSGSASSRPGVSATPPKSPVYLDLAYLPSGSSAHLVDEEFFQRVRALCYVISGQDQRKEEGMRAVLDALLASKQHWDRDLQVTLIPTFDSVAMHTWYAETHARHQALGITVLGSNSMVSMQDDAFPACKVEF
UniProt Q5TFE4: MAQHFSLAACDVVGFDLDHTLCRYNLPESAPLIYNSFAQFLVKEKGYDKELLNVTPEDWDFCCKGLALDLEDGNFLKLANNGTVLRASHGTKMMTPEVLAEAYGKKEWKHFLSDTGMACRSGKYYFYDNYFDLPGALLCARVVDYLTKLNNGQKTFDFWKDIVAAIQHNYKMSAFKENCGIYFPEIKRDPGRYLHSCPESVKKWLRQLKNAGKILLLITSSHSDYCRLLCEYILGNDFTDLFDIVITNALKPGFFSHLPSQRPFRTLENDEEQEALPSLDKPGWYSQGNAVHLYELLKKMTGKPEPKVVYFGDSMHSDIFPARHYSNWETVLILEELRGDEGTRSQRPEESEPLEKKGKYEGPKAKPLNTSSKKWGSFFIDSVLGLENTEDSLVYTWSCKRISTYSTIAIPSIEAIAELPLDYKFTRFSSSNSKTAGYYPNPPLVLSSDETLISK
UniProt Q5BKY9: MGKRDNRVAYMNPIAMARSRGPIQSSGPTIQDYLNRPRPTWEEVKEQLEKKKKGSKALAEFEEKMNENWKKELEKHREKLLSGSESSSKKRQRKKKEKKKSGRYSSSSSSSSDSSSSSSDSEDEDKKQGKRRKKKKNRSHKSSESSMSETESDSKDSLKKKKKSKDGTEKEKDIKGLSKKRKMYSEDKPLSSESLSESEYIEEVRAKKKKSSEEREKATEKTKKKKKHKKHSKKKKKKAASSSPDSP

Compound: Nc1ncnc2c1ncn2[C@@H]1O[C@H](COP(=O)(O)OP(=O)(O)OP(=O)(O)O)[C@@H](O)[C@H]1O [adenosine triphosphate]
Assay: NP40-soluble protein abundance relative to vehicle (solubility fold change) (ratio); higher = more soluble protein in presence of ATP
Procedure, shortened: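 Crude Jurkat lysate, prepared by Dounce homogenisation, was exposed to eight concentrations from 0.1 to 10 mM for 10 min at room temperature and then 3 min at 37 °C. Solubilisation used 0.8% NP40 with benzonase for 60 min at 4 °C, followed by ultracentrifugation and TMT labelling of the supernatant for LC-MS/MS. After vsn normalisation of intensities, each value is the fold change against the detergent-processed vehicle within each replicate, across three independent experiments.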

Target | NP40-soluble protein abundance (concentration: 1mM) | NP40-soluble protein abundance (concentration: 2mM) | NP40-soluble protein abundance (concentration: 4mM) | NP40-soluble protein abundance (concentration: 6mM) | NP40-soluble protein abundance (concentration: 8mM) | NP40-soluble protein abundance (concentration: 10mM)
TRMT12 (UniProt Q53H54) | 1.01 ± 0.12 | 1.05 ± 0.023 | 1.07 ± 0.098 | 1 ± 0.11 | 0.979 ± 0.063 | 1.04 ± 0.046
UniProt Q5T5Y3 and related entries | 1.01 ± 0.062 | 1 ± 0.049 | 1.01 ± 0.041 | 1.04 ± 0.057 | 0.999 ± 0.059 | 1 ± 0.05
UniProt Q5EBL8 and related entries | 1.04 ± 0.08 | 1.04 ± 0.026 | 1.13 ± 0.052 | 1.07 ± 0.048 | 1.01 ± 0.064 | 1.01 ± 0.07
PGM2L1 (UniProt Q6PCE3) | 0.965 ± 0.12 | 0.987 ± 0.093 | 0.946 ± 0.062 | 0.894 ± 0.13 | 0.953 ± 0.055 | 0.975 ± 0.046
UniProt Q562F6 and related entries | 1.02 ± 0.074 | 1.04 ± 0.051 | 1.04 ± 0.061 | 1.06 ± 0.027 | 1.03 ± 0.068 | 1.05 ± 0.062
UniProt Q6GMV3 | 0.92 ± 0.13 | 0.893 ± 0.095 | 0.933 ± 0.11 | 0.96 ± 0.14 | 0.885 ± 0.075 | 0.81 ± 0.097
UniProt Q5VIR6-4 | 0.985 ± 0.048 | 0.994 ± 0.026 | 0.994 ± 0.016 | 0.986 ± 0.012 | 0.962 ± 0.012 | 0.968 ± 0.023
UniProt Q6GYQ0 and related entries | 0.966 ± 0.047 | 0.944 ± 0.026 | 0.926 ± 0.039 | 0.95 ± 0.047 | 0.954 ± 0.05 | 0.945 ± 0.028
UniProt Q4LE39 and related entries | 0.992 ± 0.041 | 0.978 ± 0.037 | 0.971 ± 0.025 | 1.01 ± 0.058 | 0.965 ± 0.032 | 0.999 ± 0.031
CEP55 (UniProt Q53EZ4) | 1.03 ± 0.086 | 1.02 ± 0.067 | 1.04 ± 0.088 | 1.11 ± 0.039 | 1.11 ± 0.053 | 1.1 ± 0.057
ARID2 (UniProt Q68CP9) | 1.19 ± 0.024 | 1.22 ± 0.047 | 1.25 ± 0.034 | 1.31 ± 0.13 | 1.33 ± 0.074 | 1.38 ± 0.074
UniProt Q5VSL9 | 0.932 ± 0.034 | 0.956 ± 0.013 | 0.942 ± 0.052 | 0.92 ± 0.05 | 0.939 ± 0.075 | 0.951 ± 0.045
Q5TZT0 and related entries (UniProt Q9NSU2) | 0.963 ± 0.02 | 0.965 ± 0.028 | 0.984 ± 0.02 | 0.958 ± 0.097 | 0.965 ± 0.019 | 0.909 ± 0.053
MRPL54 (UniProt Q6P161) | 1.04 ± 0.084 | 0.919 ± 0.14 | 1.18 ± 0.091 | 1.11 ± 0.17 | 1.11 ± 0.068 | 0.993 ± 0.077
ERICH5 (UniProt Q6P6B1) | 0.894 ± 0.04 | 0.909 ± 0.011 | 0.913 ± 0.026 | 0.911 ± 0.064 | 0.859 ± 0.053 | 0.859 ± 0.0092
INTS5 (UniProt Q6P9B9) | 1.09 ± 0.11 | 1.06 ± 0.058 | 1.14 ± 0.019 | 1.06 ± 0.064 | 1.21 ± 0.13 | 1.29 ± 0.15
UniProt Q6P499 | 0.934 ± 0.028 | 0.968 ± 0.049 | 0.911 ± 0.034 | 0.947 ± 0.014 | 0.9003 ± 0.0041 | 0.915 ± 0.064

Target | NP40-soluble protein abundance (concentration: 1mM) | NP40-soluble protein abundance (concentration: 2mM) | NP40-soluble protein abundance (concentration: 4mM) | NP40-soluble protein abundance (concentration: 6mM) | NP40-soluble protein abundance (concentration: 8mM) | NP40-soluble protein abundance (concentration: 10mM)
NXN (UniProt Q6DKJ4) | 0.998 ± 0.07 | 1.06 ± 0.056 | 1.1 ± 0.058 | 0.958 ± 0.1 | 0.968 ± 0.097 | 1.03 ± 0.039
XAF1 (UniProt Q6GPH4) | 1 ± 0.023 | 1 ± 0.042 | 0.998 ± 0.052 | 0.995 ± 0.047 | 1.02 ± 0.041 | 0.997 ± 0.041
UniProt Q53H47 and related entries | 1.02 ± 0.014 | 0.9992 ± 0.0054 | 1.01 ± 0.025 | 1.02 ± 0.042 | 0.977 ± 0.029 | 1 ± 0.022
DCAF15 (UniProt Q66K64) | 1.1 ± 0.2 | 1.13 ± 0.22 | 1.11 ± 0.13 | 1.18 ± 0.21 | 1.01 ± 0.067 | 1.07 ± 0.15
NOM1 (UniProt Q5C9Z4) | 1.1 ± 0.025 | 1.12 ± 0.019 | 1.17 ± 0.062 | 1.19 ± 0.087 | 1.23 ± 0.074 | 1.29 ± 0.072
UniProt Q6P087 and related entries | 0.999 ± 0.11 | 1.03 ± 0.092 | 1.13 ± 0.12 | 1.13 ± 0.029 | 1.19 ± 0.19 | 1.35 ± 0.16
UniProt Q66K14 and related entries | 0.972 ± 0.034 | 0.982 ± 0.019 | 0.976 ± 0.021 | 0.963 ± 0.027 | 0.963 ± 0.047 | 0.966 ± 0.025
EDC4 (UniProt Q6P2E9) | 1.01 ± 0.026 | 1.012 ± 0.0057 | 1.001 ± 0.0078 | 1 ± 0.026 | 0.993 ± 0.022 | 1.02 ± 0.015
UniProt Q5JPI3 and related entries | 0.929 ± 0.15 | 0.867 ± 0.12 | 0.959 ± 0.13 | 0.936 ± 0.1 | 0.964 ± 0.12 | 0.987 ± 0.13
ZNF318 (UniProt Q5VUA4) | 1.07 ± 0.087 | 1.03 ± 0.12 | 1.07 ± 0.1 | 1.1 ± 0.18 | 1.09 ± 0.16 | 1.11 ± 0.13
UniProt Q66K74 and related entries | 0.991 ± 0.028 | 1.01 ± 0.016 | 1 ± 0.028 | 1.012 ± 0.0085 | 1.02 ± 0.07 | 1.01 ± 0.054
SNX30 (UniProt Q5VWJ9) | 0.947 ± 0.031 | 0.9748 ± 0.0026 | 1 ± 0.03 | 0.944 ± 0.024 | 1.01 ± 0.059 | 0.99 ± 0.021
NT5DC1 (UniProt Q5TFE4) | 1.02 ± 0.11 | 1.02 ± 0.085 | 1.01 ± 0.077 | 0.937 ± 0.13 | 0.991 ± 0.057 | 0.978 ± 0.052
UniProt Q5BKY9 and related entries | 1.13 ± 0.044 | 1.08 ± 0.082 | 1.04 ± 0.099 | 1.06 ± 0.1 | 1.05 ± 0.099 | 0.982 ± 0.12
UniProt Q6PCB7 and related entries | 1.2 ± 0.081 | 1.08 ± 0.13 | 1.16 ± 0.018 | 1.18 ± 0.14 | 1.16 ± 0.067 | 1.19 ± 0.028
UniProt Q6P444 | 0.886 ± 0.073 | 0.84 ± 0.083 | 0.989 ± 0.017 | 0.948 ± 0.069 | 0.986 ± 0.074 | 1.05 ± 0.015
Q5T5C7 (UniProt P49591) | 0.951 ± 0.059 | 0.909 ± 0.072 | 0.893 ± 0.079 | 0.882 ± 0.093 | 0.906 ± 0.077 | 0.894 ± 0.065

Single records, as listed above.
UniProt Q66K74 and related entries as listed: NP40-soluble protein abundance (concentration: 1mM): 0.991 ± 0.028; NP40-soluble protein abundance (concentration: 2mM): 1.01 ± 0.016; NP40-soluble protein abundance (concentration: 4mM): 1 ± 0.028; NP40-soluble protein abundance (concentration: 6mM): 1.012 ± 0.0085; NP40-soluble protein abundance (concentration: 8mM): 1.02 ± 0.07; NP40-soluble protein abundance (concentration: 10mM): 1.01 ± 0.054
Q5T5C7 (UniProt P49591) as listed: NP40-soluble protein abundance (concentration: 1mM): 0.951 ± 0.059; NP40-soluble protein abundance (concentration: 2mM): 0.909 ± 0.072; NP40-soluble protein abundance (concentration: 4mM): 0.893 ± 0.079; NP40-soluble protein abundance (concentration: 6mM): 0.882 ± 0.093; NP40-soluble protein abundance (concentration: 8mM): 0.906 ± 0.077; NP40-soluble protein abundance (concentration: 10mM): 0.894 ± 0.065
